± gives the uncertainty stated by the source. Many of these values have a large error.

The data set in a line: self-splicing fitness, log relative to wild type (ln ratio); higher = more splicing; Tetrahymena group I intron in knt gene, E. coli kanamycin selection, DiMSum; sequences stand for … in CUCUCU…GGAGGGAAAAGUUAUCAGGCAUGCACCUGGUAGCUAGUCUUUAAACCAAUAGAUUGCAUCGGUUUAAAAGGCAAGACCGUCAAAUUGCGGGAAAGGGGUCAACAGCCGUUCAGUACCAAGUCUCAGGGGAAACUUUGAGAUGGCCUUGCAAAGGGUAUGGUAAUAAGCUGACGGACAUGGUCCUAACCACGCAGCCAAGUCCUAAGUCAACAGAUCUUCUGUUGAUAUGGAUGCAGUUCACAGACUAAAUGUCGGUCGGGGAAGAUGUAUUCUUCUCAUAAGAUAUAGUCGGACCUCUCCUUAAUGGGAGCUAGCGGAUGAAGUGAUGCAACACUGGAGCCGCUGGGAACUAAUUUGUAUGCGAAAGUAUAUUGAUUAGUUUUGGAGUACUCGUGGUCG
A digest of the protocol:
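The eight P1ex-region nucleotides of an intron in the knt kanamycin-resistance gene on pET-22b(+) were all randomised and the library put into E. coli BL21(DE3). Six replicate transformations were grown overnight at 37°C or 30°C on LB agar with or without 25 μg/mL kanamycin, together with 100 μg/mL carbenicillin, 50 μM IPTG and 0.2% rhamnose. Colonies were pooled and amplicon-sequenced on an Illumina HiSeq 2500. Fitness from DiMSum is the error-weighted combination of wild-type-normalised replicate fold changes, kanamycin over none.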

As to AGCUAGCAAUAUUACGUUUU, the “self-splicing fitness (ln)” value was -2.36 ± 0.14 (30 °C) and -2.18 ± 0.16 (37 °C).
For GCCUAGCAAUAUUACGCAAG, under “37 °C”, the “self-splicing fitness (ln)” value was -1.83 ± 0.53.
As to CUCGAGCAAUAUUACGUGUU, the “self-splicing fitness (ln)” value is, setting by setting: (30 °C) -2.06 ± 0.16; (37 °C) -1.97 ± 0.19.
On to CUUUAGCAAUAUUACGUCGC, for which the “self-splicing fitness (ln)” value (30 °C) is -1.8 ± 0.56.
Regarding UAGCAGCAAUAUUACGAAGC, the “self-splicing fitness (ln)” value is -4.59 ± 0.59 (30 °C) and -2.18 ± 1.1 (37 °C).
For the sequence AUCGAGCAAUAUUACGUCCC, the “self-splicing fitness (ln)” value (30 °C) was -1.12 ± 0.76.
On the same count and under the same terms, the same measure for CCUCAGCAAUAUUACGCCCC: -3.13 ± 1.
As for GUGGAGCAAUAUUACGUCCA, the “self-splicing fitness (ln)” value (30 °C) was -3.06 ± 0.83 and the “self-splicing fitness (ln)” value (37 °C) was -2.64 ± 1.1.
Take UCAGAGCAAUAUUACGAAUC: the “self-splicing fitness (ln)” value (37 °C) is -2.33 ± 0.78.
Still for that read-out and setting: to CUAUAGCAAUAUUACGUAAC belongs -3.08 ± 1; to CUUUAGCAAUAUUACGGAGA, -2.1 ± 0.53.
For CGAGAGCAAUAUUACGAAUG, the “self-splicing fitness (ln)” value (30 °C) was -2.96 ± 0.2 and the “self-splicing fitness (ln)” value (37 °C) is -2.03 ± 0.21.
CUCUAGCAAUAUUACGCGGA: the “self-splicing fitness (ln)” value was -3.1 ± 0.4 (30 °C) and -1.9 ± 0.34 (37 °C).
The matching figures for AAAUAGCAAUAUUACGAUGU: -1.21 ± 0.078 and -0.875 ± 0.089.
The like results for ACCGAGCAAUAUUACGCUAC were, in that order, -3.58 ± 0.19 and -2.86 ± 0.24.
Regarding CUGCAGCAAUAUUACGGCGU, the “self-splicing fitness (ln)” value (30 °C) was -3.63 ± 0.52.
Same read-out and setting: to GUUUAGCAAUAUUACGGAGA belongs -3.51 ± 0.6; to CGGAAGCAAUAUUACGCAUA, -2.9 ± 0.61.
On to GUCUAGCAAUAUUACGGGCC, for which the “self-splicing fitness (ln)” value (37 °C) is -2.61 ± 0.77.
Take UAAGAGCAAUAUUACGAGGC: the “self-splicing fitness (ln)” value (30 °C) was -3.12 ± 0.58.
As for UACGAGCAAUAUUACGCCGA, the “self-splicing fitness (ln)” value was -2.26 ± 0.56 (30 °C) and -1.56 ± 0.58 (37 °C).
Take AUCGAGCAAUAUUACGCCCU: the “self-splicing fitness (ln)” value (37 °C) was -1.24 ± 0.66.
UACCAGCAAUAUUACGUGUC: the “self-splicing fitness (ln)” value reads like this: (30 °C) -2.04 ± 0.1; (37 °C) -2.23 ± 0.15.
Turning to CUCCAGCAAUAUUACGCCGA, under “37 °C”, the “self-splicing fitness (ln)” value was -2.42 ± 0.63.
Consider CCGGAGCAAUAUUACGUAAA, for which the “self-splicing fitness (ln)” value runs as follows: (30 °C) -3.29 ± 0.25; (37 °C) -2.09 ± 0.47.
Consider CUCGAGCAAUAUUACGGCCG, for which the “self-splicing fitness (ln)” value (30 °C) was -2.73 ± 0.55.
For CCUAAGCAAUAUUACGCUUC, for the setting “37 °C”, the “self-splicing fitness (ln)” value was -3.11 ± 0.61.
For the sequence UCGGAGCAAUAUUACGGGUA, the “self-splicing fitness (ln)” value (30 °C) was -3.03 ± 0.64.
On to CCCGAGCAAUAUUACGGCGC, for which the “self-splicing fitness (ln)” value (30 °C) is -3.48 ± 0.79 and the “self-splicing fitness (ln)” value (37 °C) was -1.68 ± 0.56.
On to CACGAGCAAUAUUACGAACU, for which the “self-splicing fitness (ln)” value (30 °C) was -3.06 ± 0.51.
Same read-out and setting: to CCGCAGCAAUAUUACGGAUC belongs -4.17 ± 0.59.
For CCAGAGCAAUAUUACGUAGG, the “self-splicing fitness (ln)” value was -3.25 ± 0.19 (30 °C) and -2.6 ± 0.25 (37 °C).
In the case of GCGAAGCAAUAUUACGCAGA, the “self-splicing fitness (ln)” value (37 °C) was -3.52 ± 0.6.
Regarding GGGGAGCAAUAUUACGAGCC, the “self-splicing fitness (ln)” value (30 °C) is -4.47 ± 1.
In the case of UGGCAGCAAUAUUACGCCAC, under “37 °C”, the “self-splicing fitness (ln)” value was -1.69 ± 1.2.
As to GUAUAGCAAUAUUACGCGGU, the “self-splicing fitness (ln)” value (30 °C) was -3.85 ± 0.52.
Turning to AAUCAGCAAUAUUACGCCGC, the “self-splicing fitness (ln)” value reads like this: (30 °C) -2.49 ± 0.55; (37 °C) -0.735 ± 0.54.
CCCUAGCAAUAUUACGAUAC: the “self-splicing fitness (ln)” value (37 °C) is -2.81 ± 0.63.
UGUGAGCAAUAUUACGCUCA: the “self-splicing fitness (ln)” value runs as follows: (30 °C) -3.7 ± 1.1; (37 °C) -2.16 ± 0.55.
In the case of GCGGAGCAAUAUUACGCUGU, the “self-splicing fitness (ln)” value is, setting by setting: (30 °C) -3.01 ± 0.84; (37 °C) -2.18 ± 0.77.
The like results for AUAGAGCAAUAUUACGGAUC were, in that order, -2.96 ± 0.3 and -2.14 ± 0.31.
For GCUGAGCAAUAUUACGCAGC, the “self-splicing fitness (ln)” value (30 °C) was -2.5 ± 0.91.
ACAAAGCAAUAUUACGUUGA: the “self-splicing fitness (ln)” value (30 °C) was -1.49 ± 0.079 and the “self-splicing fitness (ln)” value (37 °C) is -1.24 ± 0.089.
In the case of CGCCAGCAAUAUUACGAAGC, for the setting “30 °C”, the “self-splicing fitness (ln)” value was -5.4 ± 0.71.
On to GAUGAGCAAUAUUACGUGGU, for which the “self-splicing fitness (ln)” value (37 °C) was -3.37 ± 0.52.
UAGAAGCAAUAUUACGCUUU: under “30 °C”, the “self-splicing fitness (ln)” value is -4.85 ± 1.
As for GUAUAGCAAUAUUACGCAAC, the “self-splicing fitness (ln)” value (37 °C) amounted to 0.246 ± 0.58.
GGAGAGCAAUAUUACGGACG: the “self-splicing fitness (ln)” value (30 °C) is -4.76 ± 0.74.
Take UAAGAGCAAUAUUACGUUGG: the “self-splicing fitness (ln)” value (37 °C) is -3.35 ± 0.6.

The record behind these values is the supplement of paper PMC7877785.
